Reference: article PMC12374587

Chains of the proteins cited; added tags and fusions are not shown.
UniProt P07355, whole entry: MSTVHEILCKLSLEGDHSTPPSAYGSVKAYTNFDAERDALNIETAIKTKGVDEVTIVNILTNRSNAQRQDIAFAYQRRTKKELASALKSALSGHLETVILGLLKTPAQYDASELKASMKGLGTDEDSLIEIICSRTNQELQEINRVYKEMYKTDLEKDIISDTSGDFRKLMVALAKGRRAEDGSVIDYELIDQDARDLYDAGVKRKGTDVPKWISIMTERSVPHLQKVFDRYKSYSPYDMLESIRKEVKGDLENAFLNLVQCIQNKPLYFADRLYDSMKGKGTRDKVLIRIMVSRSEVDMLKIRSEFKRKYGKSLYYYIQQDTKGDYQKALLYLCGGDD

Legend:
[1] = system: ANXA2, endogenous, melanoma cell lysate; assay: pull-down (streptavidin beads, Western blot); conditions: melanoma cell lysate; lysate pull-down: RIP buffer, 4 °C, 4 h; salt and pH not stated; protein in an extract; letters put together from the description
GST-ANXA2 (Annexin A2) [2] = biological target: GST-ANXA2 (Annexin A2) (UniProt P07355); assay: pull-down (streptavidin beads, Western blot); conditions: lysate pull-down: RIP buffer, 4 °C, 4 h; salt and pH not stated; recombinant protein; protein details: GST; letters put together from the description
GST-ANXA2 (Annexin A2) [3] = biological target: GST-ANXA2 (Annexin A2) (UniProt P07355); assay: EMSA; conditions: 2 nM biotin-miR-150-3p; EMSA: Thermo Fisher kit, probes prepared in 5x TBE, room temperature, 20 min; recombinant protein; protein details: GST; letters put together from the description

Measured: binding result

CUGGUACAGGCCUGGGGGACAG [miR-150-3p]
binds: [1] | GST-ANXA2 (Annexin A2) [2] | GST-ANXA2 (Annexin A2) [3]

Construct, isoform or probe ends are uncertain for at least one entry. For part of these data: At least one result comes from cells or an extract, where the contact may be indirect.
